Laboratory results: doi:10.1101/2021.11.07.467636

Chains of the proteins cited; added tags and fusions are not shown.
UniProt Q02455: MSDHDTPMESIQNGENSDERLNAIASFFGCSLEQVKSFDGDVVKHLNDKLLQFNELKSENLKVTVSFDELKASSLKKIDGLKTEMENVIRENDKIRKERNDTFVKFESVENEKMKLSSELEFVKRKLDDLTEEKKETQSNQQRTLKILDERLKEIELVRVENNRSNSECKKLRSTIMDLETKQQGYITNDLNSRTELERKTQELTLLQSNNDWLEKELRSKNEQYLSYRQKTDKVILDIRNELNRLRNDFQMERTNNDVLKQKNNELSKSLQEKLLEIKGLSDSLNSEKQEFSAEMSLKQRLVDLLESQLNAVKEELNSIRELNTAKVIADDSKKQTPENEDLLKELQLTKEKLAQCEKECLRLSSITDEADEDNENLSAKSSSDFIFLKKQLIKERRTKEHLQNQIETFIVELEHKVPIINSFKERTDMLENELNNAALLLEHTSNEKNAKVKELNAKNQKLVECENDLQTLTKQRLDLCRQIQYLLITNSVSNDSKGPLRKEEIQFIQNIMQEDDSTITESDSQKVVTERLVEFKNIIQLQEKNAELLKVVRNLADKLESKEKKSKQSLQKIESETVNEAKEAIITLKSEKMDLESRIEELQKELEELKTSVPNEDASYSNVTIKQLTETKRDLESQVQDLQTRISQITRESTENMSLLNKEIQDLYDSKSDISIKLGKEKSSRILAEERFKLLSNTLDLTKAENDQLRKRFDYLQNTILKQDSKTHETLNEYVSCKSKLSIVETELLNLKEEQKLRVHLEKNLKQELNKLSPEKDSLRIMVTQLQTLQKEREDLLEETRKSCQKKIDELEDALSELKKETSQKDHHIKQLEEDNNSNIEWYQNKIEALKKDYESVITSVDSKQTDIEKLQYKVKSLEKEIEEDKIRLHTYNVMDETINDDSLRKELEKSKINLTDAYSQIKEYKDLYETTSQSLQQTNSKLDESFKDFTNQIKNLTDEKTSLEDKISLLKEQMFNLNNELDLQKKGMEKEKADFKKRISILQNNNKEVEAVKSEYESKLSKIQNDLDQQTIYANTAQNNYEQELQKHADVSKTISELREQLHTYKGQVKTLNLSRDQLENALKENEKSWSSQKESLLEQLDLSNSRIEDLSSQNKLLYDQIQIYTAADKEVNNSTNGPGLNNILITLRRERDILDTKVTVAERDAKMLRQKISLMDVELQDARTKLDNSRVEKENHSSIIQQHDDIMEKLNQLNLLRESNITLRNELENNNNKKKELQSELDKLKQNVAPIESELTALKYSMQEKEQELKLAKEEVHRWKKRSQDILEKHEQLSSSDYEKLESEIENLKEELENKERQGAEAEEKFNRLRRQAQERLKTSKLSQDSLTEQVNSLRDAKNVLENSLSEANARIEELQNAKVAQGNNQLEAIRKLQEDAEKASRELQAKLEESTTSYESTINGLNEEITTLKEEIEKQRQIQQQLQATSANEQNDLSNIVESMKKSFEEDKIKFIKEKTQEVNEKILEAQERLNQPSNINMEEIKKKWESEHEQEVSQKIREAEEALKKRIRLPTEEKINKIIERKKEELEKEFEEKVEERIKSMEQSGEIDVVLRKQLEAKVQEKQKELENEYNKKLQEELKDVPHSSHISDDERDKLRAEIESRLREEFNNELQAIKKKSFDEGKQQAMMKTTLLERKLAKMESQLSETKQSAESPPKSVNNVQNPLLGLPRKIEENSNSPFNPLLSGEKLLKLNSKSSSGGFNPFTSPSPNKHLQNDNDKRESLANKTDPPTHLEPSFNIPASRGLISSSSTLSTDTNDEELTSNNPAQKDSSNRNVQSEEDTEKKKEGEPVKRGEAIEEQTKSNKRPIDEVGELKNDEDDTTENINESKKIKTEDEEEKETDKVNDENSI
UniProt P04147: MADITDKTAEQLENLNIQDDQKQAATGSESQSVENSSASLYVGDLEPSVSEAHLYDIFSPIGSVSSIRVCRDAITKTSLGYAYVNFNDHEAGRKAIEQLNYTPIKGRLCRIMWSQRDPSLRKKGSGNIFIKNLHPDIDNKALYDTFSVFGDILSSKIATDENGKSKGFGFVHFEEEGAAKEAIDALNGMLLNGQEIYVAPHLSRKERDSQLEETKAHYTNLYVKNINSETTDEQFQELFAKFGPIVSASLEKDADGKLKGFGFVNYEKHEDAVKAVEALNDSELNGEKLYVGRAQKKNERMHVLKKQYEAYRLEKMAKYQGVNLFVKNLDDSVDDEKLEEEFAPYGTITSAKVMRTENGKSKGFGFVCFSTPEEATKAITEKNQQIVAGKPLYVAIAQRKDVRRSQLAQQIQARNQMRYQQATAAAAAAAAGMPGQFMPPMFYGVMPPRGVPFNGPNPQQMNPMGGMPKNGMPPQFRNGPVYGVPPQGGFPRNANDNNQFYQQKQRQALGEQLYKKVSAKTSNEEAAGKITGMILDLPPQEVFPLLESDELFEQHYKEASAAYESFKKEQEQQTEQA
UniProt P40457: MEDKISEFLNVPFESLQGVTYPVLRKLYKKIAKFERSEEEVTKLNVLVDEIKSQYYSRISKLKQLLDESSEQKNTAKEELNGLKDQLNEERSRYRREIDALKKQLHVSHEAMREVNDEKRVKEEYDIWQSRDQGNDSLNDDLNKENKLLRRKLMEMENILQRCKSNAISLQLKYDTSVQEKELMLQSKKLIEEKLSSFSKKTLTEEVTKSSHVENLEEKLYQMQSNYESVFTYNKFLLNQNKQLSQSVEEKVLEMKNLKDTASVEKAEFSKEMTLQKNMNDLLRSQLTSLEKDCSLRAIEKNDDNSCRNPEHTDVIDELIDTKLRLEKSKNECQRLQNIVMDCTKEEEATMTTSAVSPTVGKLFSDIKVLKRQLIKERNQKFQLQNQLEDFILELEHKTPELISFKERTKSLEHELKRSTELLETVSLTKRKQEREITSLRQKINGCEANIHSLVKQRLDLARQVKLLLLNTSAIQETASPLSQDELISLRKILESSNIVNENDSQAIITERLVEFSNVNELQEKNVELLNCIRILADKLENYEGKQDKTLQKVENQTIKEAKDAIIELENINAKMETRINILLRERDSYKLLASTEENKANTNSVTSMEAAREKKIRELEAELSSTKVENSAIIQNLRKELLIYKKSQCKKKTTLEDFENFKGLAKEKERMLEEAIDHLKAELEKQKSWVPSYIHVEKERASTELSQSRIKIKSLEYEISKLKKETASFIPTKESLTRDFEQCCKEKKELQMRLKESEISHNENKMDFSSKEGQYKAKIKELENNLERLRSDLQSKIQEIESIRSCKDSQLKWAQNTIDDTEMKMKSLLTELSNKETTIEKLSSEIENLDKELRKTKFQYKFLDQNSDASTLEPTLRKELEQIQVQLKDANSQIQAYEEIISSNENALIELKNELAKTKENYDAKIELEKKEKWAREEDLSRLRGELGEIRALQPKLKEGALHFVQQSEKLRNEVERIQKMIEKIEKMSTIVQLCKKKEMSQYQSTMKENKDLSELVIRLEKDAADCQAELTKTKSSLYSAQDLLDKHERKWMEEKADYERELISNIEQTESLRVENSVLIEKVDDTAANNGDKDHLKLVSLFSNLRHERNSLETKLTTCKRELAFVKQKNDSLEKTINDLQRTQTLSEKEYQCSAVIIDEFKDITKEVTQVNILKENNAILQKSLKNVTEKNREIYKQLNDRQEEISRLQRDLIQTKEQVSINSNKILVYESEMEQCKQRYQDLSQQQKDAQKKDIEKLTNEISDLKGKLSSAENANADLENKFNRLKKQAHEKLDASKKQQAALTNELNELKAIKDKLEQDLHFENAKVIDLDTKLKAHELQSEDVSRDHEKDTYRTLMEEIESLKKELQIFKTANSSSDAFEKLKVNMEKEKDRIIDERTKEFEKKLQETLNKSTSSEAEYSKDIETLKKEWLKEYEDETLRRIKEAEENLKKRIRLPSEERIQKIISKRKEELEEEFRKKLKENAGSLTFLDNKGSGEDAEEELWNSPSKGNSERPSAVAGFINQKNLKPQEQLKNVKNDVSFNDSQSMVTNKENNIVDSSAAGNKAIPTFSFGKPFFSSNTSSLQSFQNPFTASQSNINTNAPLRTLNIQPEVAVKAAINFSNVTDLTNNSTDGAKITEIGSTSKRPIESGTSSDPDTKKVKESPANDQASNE

Legend:
Assay in all cases: affinity purification with mass spectrometry
[1] = target: T1, Nup133-GFP (S. cerevisiae) (UniProt P36161)
T1 sequence: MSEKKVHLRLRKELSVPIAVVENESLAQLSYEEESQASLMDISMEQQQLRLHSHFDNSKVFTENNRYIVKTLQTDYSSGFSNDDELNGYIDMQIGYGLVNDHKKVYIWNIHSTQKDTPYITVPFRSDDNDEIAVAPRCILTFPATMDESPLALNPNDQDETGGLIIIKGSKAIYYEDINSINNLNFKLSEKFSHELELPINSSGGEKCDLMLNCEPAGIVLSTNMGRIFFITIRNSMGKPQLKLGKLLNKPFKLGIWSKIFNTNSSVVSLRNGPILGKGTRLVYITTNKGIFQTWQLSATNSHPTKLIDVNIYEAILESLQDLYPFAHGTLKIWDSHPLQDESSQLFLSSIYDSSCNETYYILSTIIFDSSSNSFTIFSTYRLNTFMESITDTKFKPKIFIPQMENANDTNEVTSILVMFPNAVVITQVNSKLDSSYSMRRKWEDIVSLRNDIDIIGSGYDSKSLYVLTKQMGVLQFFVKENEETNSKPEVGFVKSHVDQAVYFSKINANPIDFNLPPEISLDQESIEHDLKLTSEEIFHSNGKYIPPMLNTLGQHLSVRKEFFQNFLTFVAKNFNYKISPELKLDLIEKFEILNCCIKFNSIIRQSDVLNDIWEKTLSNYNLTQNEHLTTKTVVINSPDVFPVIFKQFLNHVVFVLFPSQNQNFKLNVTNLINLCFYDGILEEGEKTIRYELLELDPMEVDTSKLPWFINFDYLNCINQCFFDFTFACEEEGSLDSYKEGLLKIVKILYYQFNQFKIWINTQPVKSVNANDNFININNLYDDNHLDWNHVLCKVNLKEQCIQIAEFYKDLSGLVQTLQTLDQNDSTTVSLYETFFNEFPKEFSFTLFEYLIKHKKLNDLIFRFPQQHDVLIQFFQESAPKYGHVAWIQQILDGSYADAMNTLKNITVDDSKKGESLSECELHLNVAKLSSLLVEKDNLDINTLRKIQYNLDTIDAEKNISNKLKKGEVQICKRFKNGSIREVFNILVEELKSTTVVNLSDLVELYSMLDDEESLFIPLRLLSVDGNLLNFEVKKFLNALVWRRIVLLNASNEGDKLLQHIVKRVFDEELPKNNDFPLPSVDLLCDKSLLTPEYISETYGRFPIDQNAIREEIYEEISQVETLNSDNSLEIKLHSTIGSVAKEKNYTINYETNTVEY

Mlp1-PrA (S. cerevisiae) = Mlp1-PrA (S. cerevisiae) (UniProt Q02455)
[2] = target: T1, Nup133-GFP (S. cerevisiae); remark: listed apart in the source

binding [1]	binding (Mlp1-PrA (S. cerevisiae))	binding [2]	Substance
binds	–	–	Mlp1-PrA (from UniProt Q02455 1-1875)
binds	binds	binds	poly(A)-binding protein Pab1 (from UniProt P04147 1-577)
binds	binds	–	Mlp2 (from UniProt P40457 1-1679)

Read-outs that look alike come from different tables or passages of the source. Results are given in words; binding and its absence hold for the method and conditions named. Binding seen in cells or lysates may run through a third protein. Here binding means that the protein was enriched with, or labelled near, the bait; the list need not be complete. For part of these data: Where a sequence is shown, tags or fusion partners need not be part of it.
